Results: patent US9233191B2, “Drug-coated medical devices” (Innora GmbH, priority 2011, dated 2016)

Assay: Maximum force required to withdraw tight PTFE tubes from coated balloons (friction)
Settings: lubricant layer 0.33 μg/mm^2 on balloons coated with paclitaxel 3.3 μg/mm^2; tight PTFE tube withdrawn after 24 h

| Substance | Maximum force (N) |
| --- | --- |
| Calcium stearate | 0.36 ± 0.09 N |
| Magnesium caprylate | 0.12 ± 0.03 N |
| Magnesium oleate | 0.16 ± 0.10 N |
| Magnesium palmitate | 0.24 ± 0.11 N |
| Magnesium stearate | 0.28 ± 0.20 N |
| Zinc stearate | 0.30 ± 0.18 N |
